In the supplement of paper PMC12819154, “High-throughput peptide-centric local stability assay extends protein–ligand identification to membrane proteins, tissues and bacteria” (Nature Structural & Molecular Biology, 2025):
This is one part of the list. Small differences around the control level are noise.

Sequences of proteins named here, by UniProt entry; tags and fusion partners are left off. A change or cut given only in a name is not applied to a line headed by its entry.
UniProt Q9NR56: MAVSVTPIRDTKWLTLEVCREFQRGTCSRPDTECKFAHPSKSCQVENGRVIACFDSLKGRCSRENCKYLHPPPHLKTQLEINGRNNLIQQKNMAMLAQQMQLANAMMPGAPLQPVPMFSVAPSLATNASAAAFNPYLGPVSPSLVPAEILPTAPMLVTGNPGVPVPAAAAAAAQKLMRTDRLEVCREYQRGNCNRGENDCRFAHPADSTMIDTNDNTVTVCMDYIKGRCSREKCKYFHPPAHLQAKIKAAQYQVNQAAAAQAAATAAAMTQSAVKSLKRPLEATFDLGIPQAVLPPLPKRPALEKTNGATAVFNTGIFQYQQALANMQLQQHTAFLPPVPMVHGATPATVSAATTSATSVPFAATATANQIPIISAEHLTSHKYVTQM
UniProt Q9NQS1: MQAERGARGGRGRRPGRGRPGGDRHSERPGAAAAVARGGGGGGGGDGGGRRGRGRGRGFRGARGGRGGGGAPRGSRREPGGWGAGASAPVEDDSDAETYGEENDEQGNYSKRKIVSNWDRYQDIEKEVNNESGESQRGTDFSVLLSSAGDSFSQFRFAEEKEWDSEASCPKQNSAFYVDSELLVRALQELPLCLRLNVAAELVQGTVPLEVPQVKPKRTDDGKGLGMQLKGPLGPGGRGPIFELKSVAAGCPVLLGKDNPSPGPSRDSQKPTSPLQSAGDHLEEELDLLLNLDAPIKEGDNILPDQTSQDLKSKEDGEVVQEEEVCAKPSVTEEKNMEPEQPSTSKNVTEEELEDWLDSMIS
UniProt Q9NU19: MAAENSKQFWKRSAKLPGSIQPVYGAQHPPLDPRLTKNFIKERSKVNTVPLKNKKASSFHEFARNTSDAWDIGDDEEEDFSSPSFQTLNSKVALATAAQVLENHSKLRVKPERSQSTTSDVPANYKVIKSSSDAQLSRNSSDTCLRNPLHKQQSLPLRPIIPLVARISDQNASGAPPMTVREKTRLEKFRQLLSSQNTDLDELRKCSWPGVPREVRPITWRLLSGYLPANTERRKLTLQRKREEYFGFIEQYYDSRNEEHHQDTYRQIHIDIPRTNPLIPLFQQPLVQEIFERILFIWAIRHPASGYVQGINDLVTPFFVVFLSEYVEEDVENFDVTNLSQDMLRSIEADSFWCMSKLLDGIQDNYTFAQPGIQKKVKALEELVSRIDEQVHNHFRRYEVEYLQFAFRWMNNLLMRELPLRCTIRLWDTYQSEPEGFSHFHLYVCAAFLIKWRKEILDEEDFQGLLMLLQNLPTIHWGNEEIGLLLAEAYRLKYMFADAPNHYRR
UniProt Q9NV88, whole entry: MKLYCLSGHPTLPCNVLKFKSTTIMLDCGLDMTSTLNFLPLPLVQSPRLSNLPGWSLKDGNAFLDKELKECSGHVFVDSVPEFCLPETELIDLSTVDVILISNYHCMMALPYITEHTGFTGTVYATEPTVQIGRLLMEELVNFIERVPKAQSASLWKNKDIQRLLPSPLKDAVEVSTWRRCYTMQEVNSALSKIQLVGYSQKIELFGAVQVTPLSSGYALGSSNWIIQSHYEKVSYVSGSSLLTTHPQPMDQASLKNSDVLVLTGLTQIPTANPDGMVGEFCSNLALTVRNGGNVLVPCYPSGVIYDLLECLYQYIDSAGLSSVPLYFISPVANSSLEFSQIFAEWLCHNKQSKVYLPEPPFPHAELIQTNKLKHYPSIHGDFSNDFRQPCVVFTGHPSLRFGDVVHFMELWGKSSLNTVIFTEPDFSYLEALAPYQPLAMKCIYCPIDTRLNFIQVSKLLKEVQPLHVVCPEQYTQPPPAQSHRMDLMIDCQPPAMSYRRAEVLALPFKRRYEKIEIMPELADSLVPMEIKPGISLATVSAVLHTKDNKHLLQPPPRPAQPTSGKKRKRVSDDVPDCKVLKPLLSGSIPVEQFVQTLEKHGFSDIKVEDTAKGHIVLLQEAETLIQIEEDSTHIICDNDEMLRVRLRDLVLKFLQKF
UniProt Q9NRR8: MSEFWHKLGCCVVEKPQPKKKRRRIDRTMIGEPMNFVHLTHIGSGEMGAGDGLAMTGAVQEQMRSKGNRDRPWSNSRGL
UniProt Q9NR81: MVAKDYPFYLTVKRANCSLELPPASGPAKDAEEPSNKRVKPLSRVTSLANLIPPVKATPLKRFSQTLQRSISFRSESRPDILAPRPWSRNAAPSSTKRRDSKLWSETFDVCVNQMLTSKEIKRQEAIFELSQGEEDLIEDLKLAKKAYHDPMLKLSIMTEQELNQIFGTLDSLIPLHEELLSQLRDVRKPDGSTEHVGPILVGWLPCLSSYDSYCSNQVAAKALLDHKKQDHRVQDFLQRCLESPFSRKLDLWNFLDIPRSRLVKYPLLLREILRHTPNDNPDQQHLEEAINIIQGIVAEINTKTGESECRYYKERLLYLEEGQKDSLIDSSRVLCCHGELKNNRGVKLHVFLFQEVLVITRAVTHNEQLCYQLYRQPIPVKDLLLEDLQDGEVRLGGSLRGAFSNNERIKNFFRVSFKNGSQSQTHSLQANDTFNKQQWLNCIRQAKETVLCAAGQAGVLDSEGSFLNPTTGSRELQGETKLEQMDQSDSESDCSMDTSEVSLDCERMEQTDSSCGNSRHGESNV
UniProt Q9NTX7: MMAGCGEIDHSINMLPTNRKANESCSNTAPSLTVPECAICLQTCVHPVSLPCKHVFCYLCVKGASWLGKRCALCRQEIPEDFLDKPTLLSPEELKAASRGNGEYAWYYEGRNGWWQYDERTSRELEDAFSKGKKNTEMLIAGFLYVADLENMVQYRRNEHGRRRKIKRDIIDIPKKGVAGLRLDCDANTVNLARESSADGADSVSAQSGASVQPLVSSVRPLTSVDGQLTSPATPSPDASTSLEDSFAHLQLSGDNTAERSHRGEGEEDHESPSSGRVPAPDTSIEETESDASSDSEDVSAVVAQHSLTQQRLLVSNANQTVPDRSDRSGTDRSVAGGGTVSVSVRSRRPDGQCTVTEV
UniProt Q9NYL9: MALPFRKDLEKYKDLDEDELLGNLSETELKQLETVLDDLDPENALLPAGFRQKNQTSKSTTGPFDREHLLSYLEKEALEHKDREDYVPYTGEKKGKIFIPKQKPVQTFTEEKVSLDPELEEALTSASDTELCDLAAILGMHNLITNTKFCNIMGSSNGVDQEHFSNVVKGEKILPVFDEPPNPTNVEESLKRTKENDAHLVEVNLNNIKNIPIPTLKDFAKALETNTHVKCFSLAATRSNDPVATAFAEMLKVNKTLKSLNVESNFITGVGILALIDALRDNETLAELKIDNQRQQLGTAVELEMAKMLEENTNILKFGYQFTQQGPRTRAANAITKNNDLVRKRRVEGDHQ
UniProt Q9NS37: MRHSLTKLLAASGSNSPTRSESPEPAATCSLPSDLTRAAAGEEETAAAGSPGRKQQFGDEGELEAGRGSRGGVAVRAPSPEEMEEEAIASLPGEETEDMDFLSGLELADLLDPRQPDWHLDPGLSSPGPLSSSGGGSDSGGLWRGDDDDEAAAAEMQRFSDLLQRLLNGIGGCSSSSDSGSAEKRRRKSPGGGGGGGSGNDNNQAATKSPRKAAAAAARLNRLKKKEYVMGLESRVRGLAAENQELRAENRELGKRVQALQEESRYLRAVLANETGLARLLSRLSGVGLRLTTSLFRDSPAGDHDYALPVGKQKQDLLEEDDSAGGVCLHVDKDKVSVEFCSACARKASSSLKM
UniProt Q9NY33: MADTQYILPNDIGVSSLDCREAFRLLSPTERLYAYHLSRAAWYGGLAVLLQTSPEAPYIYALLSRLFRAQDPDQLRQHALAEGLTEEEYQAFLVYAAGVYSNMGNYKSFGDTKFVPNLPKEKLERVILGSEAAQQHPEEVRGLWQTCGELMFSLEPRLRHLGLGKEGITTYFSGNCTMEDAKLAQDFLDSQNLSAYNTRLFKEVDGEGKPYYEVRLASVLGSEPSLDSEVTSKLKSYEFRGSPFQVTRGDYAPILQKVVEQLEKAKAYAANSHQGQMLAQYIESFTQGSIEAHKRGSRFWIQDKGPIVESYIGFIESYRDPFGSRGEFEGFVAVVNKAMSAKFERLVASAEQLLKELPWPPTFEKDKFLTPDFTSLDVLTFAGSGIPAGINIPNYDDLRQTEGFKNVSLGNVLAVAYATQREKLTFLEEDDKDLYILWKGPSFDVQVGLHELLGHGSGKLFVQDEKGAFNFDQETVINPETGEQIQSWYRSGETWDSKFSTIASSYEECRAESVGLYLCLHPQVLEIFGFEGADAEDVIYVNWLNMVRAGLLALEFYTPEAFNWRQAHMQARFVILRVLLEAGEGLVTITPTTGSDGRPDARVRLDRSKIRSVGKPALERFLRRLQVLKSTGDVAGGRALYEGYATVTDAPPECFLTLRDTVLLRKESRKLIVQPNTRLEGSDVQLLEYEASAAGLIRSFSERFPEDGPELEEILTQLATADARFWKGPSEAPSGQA
UniProt Q9NSQ0: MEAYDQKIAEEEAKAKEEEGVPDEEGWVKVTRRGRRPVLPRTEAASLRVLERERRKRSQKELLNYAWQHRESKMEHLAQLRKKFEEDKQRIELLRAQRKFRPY
UniProt Q9NXC5: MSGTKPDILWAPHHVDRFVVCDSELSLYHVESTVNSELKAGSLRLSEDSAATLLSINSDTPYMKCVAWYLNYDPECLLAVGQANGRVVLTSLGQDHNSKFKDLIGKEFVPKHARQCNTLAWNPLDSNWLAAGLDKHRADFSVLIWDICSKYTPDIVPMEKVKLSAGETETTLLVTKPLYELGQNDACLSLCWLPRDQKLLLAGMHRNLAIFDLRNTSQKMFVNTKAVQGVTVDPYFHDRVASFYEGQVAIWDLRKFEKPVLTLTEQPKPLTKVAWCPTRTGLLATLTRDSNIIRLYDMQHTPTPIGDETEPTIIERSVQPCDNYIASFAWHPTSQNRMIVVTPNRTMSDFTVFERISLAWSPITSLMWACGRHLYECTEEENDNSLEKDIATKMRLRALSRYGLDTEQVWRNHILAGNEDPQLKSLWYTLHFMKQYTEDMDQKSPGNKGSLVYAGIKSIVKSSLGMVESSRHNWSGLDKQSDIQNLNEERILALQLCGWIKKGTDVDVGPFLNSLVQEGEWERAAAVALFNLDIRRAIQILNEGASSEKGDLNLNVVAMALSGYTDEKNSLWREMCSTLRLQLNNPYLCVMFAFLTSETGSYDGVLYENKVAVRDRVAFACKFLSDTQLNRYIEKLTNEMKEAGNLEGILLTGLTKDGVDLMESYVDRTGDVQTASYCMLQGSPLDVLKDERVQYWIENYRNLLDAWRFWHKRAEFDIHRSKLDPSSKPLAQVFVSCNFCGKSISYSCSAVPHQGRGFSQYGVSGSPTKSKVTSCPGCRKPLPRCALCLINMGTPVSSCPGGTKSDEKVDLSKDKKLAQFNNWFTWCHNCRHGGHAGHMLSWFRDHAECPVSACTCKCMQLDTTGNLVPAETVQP
UniProt Q9NRS6: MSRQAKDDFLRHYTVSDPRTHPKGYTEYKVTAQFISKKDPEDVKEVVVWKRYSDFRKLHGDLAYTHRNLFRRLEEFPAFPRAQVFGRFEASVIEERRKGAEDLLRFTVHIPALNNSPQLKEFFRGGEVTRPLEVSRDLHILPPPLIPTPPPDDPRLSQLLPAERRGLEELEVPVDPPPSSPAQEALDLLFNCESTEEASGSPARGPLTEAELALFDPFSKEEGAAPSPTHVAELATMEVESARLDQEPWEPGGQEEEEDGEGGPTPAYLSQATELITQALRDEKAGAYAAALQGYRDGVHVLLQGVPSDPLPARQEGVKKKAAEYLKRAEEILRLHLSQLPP
UniProt Q9NWV8, whole entry: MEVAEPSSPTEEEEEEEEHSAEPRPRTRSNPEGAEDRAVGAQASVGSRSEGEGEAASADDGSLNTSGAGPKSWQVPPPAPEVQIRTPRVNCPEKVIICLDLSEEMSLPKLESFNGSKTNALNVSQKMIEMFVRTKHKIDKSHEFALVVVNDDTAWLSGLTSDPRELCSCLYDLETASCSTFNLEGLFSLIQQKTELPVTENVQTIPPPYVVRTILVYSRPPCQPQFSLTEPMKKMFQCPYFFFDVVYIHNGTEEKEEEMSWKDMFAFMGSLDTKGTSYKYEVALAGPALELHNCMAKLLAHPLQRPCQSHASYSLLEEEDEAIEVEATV
UniProt Q9NXR7, whole entry: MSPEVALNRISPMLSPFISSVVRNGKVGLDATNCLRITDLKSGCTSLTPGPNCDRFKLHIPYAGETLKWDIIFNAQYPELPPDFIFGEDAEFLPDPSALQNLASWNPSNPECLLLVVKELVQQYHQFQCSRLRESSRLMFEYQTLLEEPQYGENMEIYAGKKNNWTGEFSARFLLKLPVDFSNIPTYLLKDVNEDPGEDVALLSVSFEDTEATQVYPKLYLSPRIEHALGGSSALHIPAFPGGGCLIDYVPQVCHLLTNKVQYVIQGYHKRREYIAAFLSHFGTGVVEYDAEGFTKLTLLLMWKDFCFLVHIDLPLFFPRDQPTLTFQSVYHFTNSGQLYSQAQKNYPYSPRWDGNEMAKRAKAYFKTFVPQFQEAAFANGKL

Compound: CN[C@@H]1C[C@H]2O[C@@](C)([C@@H]1OC)n1c3ccccc3c3c4c(c5c6ccccc6n2c5c31)C(=O)NC4 [staurosporine]
Test: log2 fold change of tryptic peptide abundance, ligand vs vehicle (limited proteolysis) (log2 ratio); higher = more trypsin-susceptible (destabilized)
Conditions: ligand concentration: 20 uM; sample: K562 cleared lysate; digestion: 4 min, 22 C (HT-PELSA RT4min, Orbitrap Astral)

With “MBNL1 (peptide sequence: CSRENCKYLHPPPHLK, peptide start residue: 61) (UniProt Q9NR56)” as the target, how does the log2 fold change read?
Its log2 fold change is 0.459.

With “KIF15 (peptide sequence: TAIIANVHPGSR, peptide start residue: 334) (UniProt Q9NS87)” as the target, how does the log2 fold change read?
The log2 fold change was 0.221.

“AVEN (peptide sequence: SVAAGCPVLLGK, peptide start residue: 246) (UniProt Q9NQS1)” was tested. Which log2 fold change did it give?
The log2 fold change was 0.147.

“TBC1D22B (peptide sequence: VALATAAQVLENHSK, peptide start residue: 92) (UniProt Q9NU19)” was tested. Which log2 fold change did it give?
Its log2 fold change is 0.15.

“IARS2 (peptide sequence: EAQNLSAMEIR, peptide start residue: 171) (UniProt Q9NSE4)” was tested. Which log2 fold change did it give?
Its log2 fold change is 0.45.

Which log2 fold change does the source give for “INTS9 (peptide sequence: KRVSDDVPDCK, peptide start residue: 569) (UniProt Q9NV88)” here?
The log2 fold change was -0.258.

Which log2 fold change does the source give for “CDC42SE1 (peptide sequence: LGCCVVEKPQPK, peptide start residue: 8) (UniProt Q9NRR8)” here?
The log2 fold change was -0.291.

With “UniProt Q9NR81 (peptide sequence: CLESPFSR, peptide start residue: 293)” as the target, how does the log2 fold change read?
Its log2 fold change is 0.229.

For “DNAJB12 (peptide sequence: YFGDTDMYHR, peptide start residue: 345) (UniProt Q9NXW2)”, which log2 fold change is on record?
The log2 fold change was 0.798.

Which log2 fold change does the source give for “ABCF3 (peptide sequence: EYEAQQQYR, peptide start residue: 426) (UniProt Q9NUQ8)” here?
Its log2 fold change is -0.189.

“RNF146 (peptide sequence: SVAGGGTVSVSVR, peptide start residue: 334) (UniProt Q9NTX7)” was tested. Which log2 fold change did it give?
Its log2 fold change is -0.454.

For “PIH1D1 (peptide sequence: RMQNSDFLR, peptide start residue: 131) (UniProt Q9NWS0)”, which log2 fold change is on record?
Its log2 fold change is 0.417.

How did the log2 fold change turn out when “UniProt Q9NXR5 (peptide sequence: AGATLNVSTTR, peptide start residue: 80)” was run?
The log2 fold change was 0.16.

With “TMOD3 (peptide sequence: AANAITKNNDLVR, peptide start residue: 331) (UniProt Q9NYL9)” as the target, how does the log2 fold change read?
The log2 fold change was -0.706.

For “UniProt Q9NS37 (peptide sequence: AVLANETGLAR, peptide start residue: 269)”, which log2 fold change is on record?
The log2 fold change was -0.348.

Which log2 fold change does the source give for “DPP3 (peptide sequence: SGETWDSK, peptide start residue: 491) (UniProt Q9NY33)” here?
Its log2 fold change is -0.241.

With “UniProt Q9NSQ0 (peptide sequence: KKFEEDK, peptide start residue: 259)” as the target, how does the log2 fold change read?
The log2 fold change was 0.193.

For “MIOS (peptide sequence: SSLGMVESSR, peptide start residue: 462) (UniProt Q9NXC5)”, which log2 fold change is on record?
Its log2 fold change is -0.123.

“SNX15 (peptide sequence: EVVVWKR, peptide start residue: 45) (UniProt Q9NRS6)” was tested. Which log2 fold change did it give?
The log2 fold change was -0.314.

“GPHN (peptide sequence: IPDSIISR, peptide start residue: 244) (UniProt Q9NQX3)” was tested. Which log2 fold change did it give?
Its log2 fold change is -0.13.

With “UniProt Q9NWV8 (peptide sequence: LESFNGSK, peptide start residue: 110)” as the target, how does the log2 fold change read?
The log2 fold change was 0.195.

How did the log2 fold change turn out when “UniProt Q9NYL2 (peptide sequence: LLLLEEEDLKDMGIVSK, peptide start residue: 378)” was run?
The log2 fold change was 0.29.

With “SH3GLB2 (peptide sequence: NFLEGDWK, peptide start residue: 146) (UniProt Q9NR46)” as the target, how does the log2 fold change read?
The log2 fold change was 0.132.

For “UniProt Q9NXR7 (peptide sequence: ELVQQYHQFQCSR, peptide start residue: 119)”, which log2 fold change is on record?
The log2 fold change was 0.369.

How did the log2 fold change turn out when “AATF (peptide sequence: VSEEVEKGR, peptide start residue: 217) (UniProt Q9NY61)” was run?
The log2 fold change was -0.936.
